Reference: patent US20260184774A1
No constants are given. Whether binding was seen depends on the method and setting. Binding seen in cells or lysates may run through a third protein. Some results given as binding are weak or reduced against the parent protein; the word gives no strength.

Target: APP 751 (UniProt P05067)
Assay: co-immunoprecipitation from HEK293FT lysates, western blot (FIG. 26A)

B1: CNTN4 #10 (full length, Ig1 to FN4) (protein, UniProt Q8IWV2 19-1000, looked up)
chain: DDSTLHGPIFIQEPSPVMFPLDSEEKKVKLNCEVKGNPKPHIRWKLNGTDVDTGMDFRYSVVEGSLLINNPNKTQDAGTYQCTATNSFGTIVSREAKLQFAYLDNFKTRTRSTVSVRRGQGMVLLCGPPPHSGELSYAWIFNEYPSYQDNRRFVSQETGNLYIAKVEKSDVGNYTCVVTNTVTNHKVLGPPTPLILRNDGVMGEYEPKIEVQFPETVPTAKGATVKLECFALGNPVPTIIWRRADGKPIARKARRHKSNGILEIPNFQQEDAGLYECVAENSRGKNVARGQLTFYAQPNWIQKINDIHVAMEENVFWECKANGRPKPTYKWLKNGEPLLTRDRIQIEQGTLNITIVNLSDAGMYQCLAENKHGVIFSNAELSVIAVGPDFSRTLLKRVTLVKVGGEVVIECKPKASPKPVYTWKKGRDILKENERITISEDGNLRIINVTKSDAGSYTCIATNHFGTASSTGNLVVKDPTRVMVPPSSMDVTVGESIVLPCQVTHDHSLDIVFTWSFNGHLIDFDRDGDHFERVGGQDSAGDLMIRNIQLKHAGKYVCMVQTSVDRLSAAADLIVRGPPGPPEAVTIDEITDTTAQLSWRPGPDNHSPITMYVIQARTPFSVGWQAVSTVPELIDGKTFTATVVGLNPWVEYEFRTVAANVIGIGEPSRPSEKRRTEEALPEVTPANVSGGGGSKSELVITWETVPEELQNGRGFGYVVAFRPYGKMIWMLTVLASADASRYVFRNESVHPFSPFEVKVGVFNNKGEGPFSPTTVVYSAEEEPTKPPASIFARSLSATDIEVFWASPLEKNRGRIQGYEVKYWRHEDKEENARKIRTVGNQTSTKITNLKGSVLYHLAVKAYNSAGTGPSSATVNVTTRKPPPSQPPGNIIWNSSDSKIILNWDQVKALDNESEVKGYKVLYRWNRQSSTSVIETNKTSVELSLPFDEDYIIEIKPFSDGGDGSSSEQIRIPKISNAYARGS
B1 was tested, and the binding was “binds”.
